In US20060147420A1 (University of Texas, published 2006):
Results are given in words; binding and its absence hold for the method and conditions named. Some results given as binding are weak or reduced against the parent protein; the word gives no strength.

Protein sequences, listed by entry. Tags and fused reporters are not part of them. Residues count along the entry.
UniProt Q02763, residues 23-1124: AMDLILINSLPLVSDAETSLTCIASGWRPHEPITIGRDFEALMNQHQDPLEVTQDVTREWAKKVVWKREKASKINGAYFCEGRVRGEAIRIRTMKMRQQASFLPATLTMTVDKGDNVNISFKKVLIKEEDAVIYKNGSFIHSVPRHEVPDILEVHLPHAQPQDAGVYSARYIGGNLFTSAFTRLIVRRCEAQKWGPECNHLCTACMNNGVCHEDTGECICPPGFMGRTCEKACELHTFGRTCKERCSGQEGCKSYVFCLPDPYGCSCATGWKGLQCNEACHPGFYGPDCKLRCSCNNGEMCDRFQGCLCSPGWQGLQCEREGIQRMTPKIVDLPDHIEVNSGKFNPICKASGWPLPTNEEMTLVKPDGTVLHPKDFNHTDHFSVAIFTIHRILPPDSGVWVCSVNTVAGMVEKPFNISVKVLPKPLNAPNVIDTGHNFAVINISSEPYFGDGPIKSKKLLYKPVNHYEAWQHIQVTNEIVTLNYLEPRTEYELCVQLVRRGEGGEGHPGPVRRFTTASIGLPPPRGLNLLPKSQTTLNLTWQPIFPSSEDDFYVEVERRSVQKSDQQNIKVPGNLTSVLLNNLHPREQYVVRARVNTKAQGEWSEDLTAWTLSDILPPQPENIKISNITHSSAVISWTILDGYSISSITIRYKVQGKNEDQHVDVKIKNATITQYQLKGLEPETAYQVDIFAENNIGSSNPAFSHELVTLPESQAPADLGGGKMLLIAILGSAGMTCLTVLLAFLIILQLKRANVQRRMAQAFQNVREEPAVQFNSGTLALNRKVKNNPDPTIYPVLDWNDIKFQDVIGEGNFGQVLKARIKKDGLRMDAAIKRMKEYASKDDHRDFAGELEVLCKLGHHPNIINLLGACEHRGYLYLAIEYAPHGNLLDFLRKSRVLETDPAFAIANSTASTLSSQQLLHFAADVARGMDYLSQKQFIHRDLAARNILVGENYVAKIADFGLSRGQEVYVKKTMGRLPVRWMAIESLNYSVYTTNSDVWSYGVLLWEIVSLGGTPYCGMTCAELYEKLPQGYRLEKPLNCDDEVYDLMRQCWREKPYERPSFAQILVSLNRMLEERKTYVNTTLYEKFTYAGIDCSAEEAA

Target: Tie2 receptor (on or in glioma and endothelial cells) (human) (UniProt Q02763)
Experiment: flow cytometry with FAM-labelled peptide on the U-251 MG isogenic system and A172 cells

B1: NLLMAAS (T4) peptide linked to FAM (peptide)
peptide: NLLMAAS
modifications: N-terminal aminohexanoic acid labeled by coupling 5(6)-carboxyfluorescein
  binding: binds
